# Library screening results

Data taken from ChEMBL document CHEMBL3988442, “University of Dundee, Small-Polar-MMV Screening Library” (2021).

Mtb growth Cornell: 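Whole-cell assay for inhibitors of Mycobacterium tuberculosis growth, labelled Cornell in the record; the read-out is not stated. The concentration is filed as 10 mM, unlikely as a test dose, so the dose is not known. The record gives no direction; compounds strong in two other growth screens of this library score well above the rest, so higher reads as stronger inhibition. About 53,000 compounds were tested under these conditions; 1.7% (about 900) showed 50% or more at least once.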
Mtb heat-shock: 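Assay on Mycobacterium tuberculosis, filed only as a heat shock assay from Cornell; the read-out is not stated. The concentration is filed as 10 mM, unlikely as a test dose, so the dose is not known. Higher reads as stronger inhibition (inferred: compounds with an IC50 in retests scored well above the rest). About 69,000 compounds were tested under these conditions; 1.4% (about 930) showed 50% or more at least once.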

Values are the deposited “Percent Effect”, in %. The record does not define 0% and 100%; most values in the screen are far below 50% and negative numbers occur (in some assays of this library far below -100). This is an unselected part of the compounds tested.

Result for CC(C)c1nc(C2CCCN2C(=O)c2cnc[nH]2)no1 (centres undefined) was Mtb growth Cornell: -2.674%; Mtb heat-shock: 10.5%.
Result for Cc1cnn(CC2CCCN2C(=O)CCc2c(C)nc(C)[nH]c2=O)c1 (centres undefined) was Mtb heat-shock: 5.614%.
Result for Cc1nc(CN2CCN(c3nc4c(s3)c(C)nn4C)CC2)cs1 was Mtb heat-shock: -7.849%.
Result for Cc1ccc2cc(CNCCN3CCCC3)c(=O)[nH]c2c1 was Mtb growth Cornell: -71.96%; Mtb heat-shock: -7.132%.
Result for O=c1[nH]c(NCCO)nc2c1C1(CCCCC1)Cc1ccccc1-2 was Mtb growth Cornell: 38.79%; Mtb heat-shock: -29.87%.
Result for Nc1ccc(-c2ccc(F)cc2Cl)cn1 was Mtb growth Cornell: 21.59%; Mtb heat-shock: -10.02%.
Result for O=C(O)C(F)(F)F.c1ccc(N2CCCC3(CCN(Cc4ccsc4)C3)C2)nc1 (centres undefined) was Mtb growth Cornell: 35.15%; Mtb heat-shock: -1.694%.
Result for CS(=O)(=O)c1ccc(-c2ccccc2C(=O)O)cc1 was Mtb growth Cornell: -4.334%; Mtb heat-shock: 21.08%.
Result for COCc1ccc(C(=O)N2CCC(Oc3ccccc3)(C(=O)O)CC2)o1 was Mtb growth Cornell: 6.949%; Mtb heat-shock: -20.95%.
Result for Cc1nc(N2CCCC2)nc(C)c1NS(C)(=O)=O was Mtb growth Cornell: 7.192%; Mtb heat-shock: 2.02%.
Result for COc1ccc(CNc2cnn(CC(F)F)c2)cc1 was Mtb growth Cornell: -126.7%; Mtb heat-shock: -3.981%.
Result for COc1cc(F)cc(CNC(=O)Nc2ccn(CC(F)F)n2)c1 was Mtb growth Cornell: 27.74%; Mtb heat-shock: 2.222%.
Result for CSCCC(Nc1nc(C)cc(C)n1)C(=O)NC(C)(C)CO (centres undefined) was Mtb growth Cornell: -3.935%; Mtb heat-shock: -18.73%.
Result for CC(=O)NC1CCCN(Cc2ccn(C)c(=O)c2)C1 (centres undefined) was Mtb heat-shock: -4.489%.
Result for COC(=O)N1CCN(C(=O)c2ccc(C)c(N3CCNC3=O)c2)CC1 was Mtb growth Cornell: -4.016%; Mtb heat-shock: -9.124%.
Result for COc1cc(N2CCC3(CC2)CC(N2CCOCC2)C3)ncn1.O=C(O)C(F)(F)F was Mtb heat-shock: -18.53%.
Result for Fc1cccc(-c2nc(CN3CCCC(Cn4cncn4)C3)co2)c1 (centres undefined) was Mtb heat-shock: -14.13%.
Result for CC(C)CCN1C2(CCN(C(=O)N(C)C)C2)c2ccccc2S1(=O)=O (centres undefined) was Mtb growth Cornell: 37.16%; Mtb heat-shock: -4.742%.
Result for CCc1ocnc1C(=O)N1CCC2(CCCN(CC(C)(C)C)C2=O)C1 (centres undefined) was Mtb growth Cornell: 21.42%; Mtb heat-shock: 4.434%.
Result for COc1ccc(CNC(=O)N2CCCN(CC3CCCCC3)CC2)cn1 was Mtb growth Cornell: 19.03%; Mtb heat-shock: 6.869%.
Result for Cc1nc(C)n(CC2CCCN2CC(=O)NCc2ccco2)n1 (centres undefined) was Mtb growth Cornell: 3.246%; Mtb heat-shock: -0.5237%.
Result for COc1ccc(CN2CCNC(=O)CC2)cc1SC(F)(F)F was Mtb growth Cornell: 10.26%; Mtb heat-shock: 3.089%.
Result for COc1cc(N2CC[C@H](O)[C@@H]2Cc2cccnc2)ncn1 was Mtb growth Cornell: 8.791%; Mtb heat-shock: -30.12%.
Result for CN(Cc1ccsc1)C(=O)Nc1ccc(S(=O)(=O)N(C)C)cc1 was Mtb growth Cornell: 9.116%; Mtb heat-shock: 28.75%.
Result for CCNC(=O)NCc1ccc(-n2ccc(C(F)(F)F)n2)cc1 was Mtb growth Cornell: 21.88%; Mtb heat-shock: -0.2415%.
Result for COc1cccc(C(=O)Nc2cc(CC(C)C)nn2C)c1 was Mtb growth Cornell: 19.42%; Mtb heat-shock: 40.77%.
Result for CCn1nc2c(cc1=O)CN(Cc1nc(N)c3ccccc3n1)CC2 was Mtb growth Cornell: 5.933%; Mtb heat-shock: 35.59%.
Result for Cc1cnc2c(c1NCc1ccncc1)c(=O)n(C)c(=O)n2C was Mtb growth Cornell: -9.188%; Mtb heat-shock: 1.178%.
Result for Cn1cc(N)c(-c2nnc3n2CCCC3)n1 was Mtb growth Cornell: -19.96%; Mtb heat-shock: 0.5687%.
Result for O=c1ccn(Cc2nc(-c3ccccc3F)cs2)c(=O)[nH]1 was Mtb growth Cornell: 33.27%; Mtb heat-shock: -3.109%.
Result for Cc1cnc(C(=O)N2Cc3cc(Cl)ccc3OC3(CCOCC3)C2)cn1 was Mtb growth Cornell: -1.841%; Mtb heat-shock: -5.337%.
Result for Cc1ccc2cccc(S(=O)(=O)N(C)C3CCCN(C)C3)c2n1 (centres undefined) was Mtb growth Cornell: 11.36%; Mtb heat-shock: 1.363%.
Result for [H][C@@]12CCN(C3CCC3)C[C@]1([H])OCCN(Cc1ccncc1)C2=O was Mtb growth Cornell: -20.4%; Mtb heat-shock: -9.421%.
Result for O=C(c1c[nH]cn1)N1CCC(n2cc(-c3ccsc3)nn2)CC1 was Mtb growth Cornell: 4.571%; Mtb heat-shock: -11.64%.
Result for CN(Cc1ccoc1)C(=O)CN1C(=O)OC(C)(C)C1=O was Mtb growth Cornell: -3.816%; Mtb heat-shock: -10.41%.